Data on three molecules can be found in patent US20260217863A1, “ANTIBODY OR PEPTIDE BINDING SPECIFICALLY TO RNASE A, IMMUNOASSAY DEVICE AND METHOD FOR DETECTING RNASE A, AND METHOD FOR COLLECTING RNASE A” (UIF (University Industry Foundation), Yonsei University, priority 2022, published 2026).

By UniProt entry, the sequences of proteins in these tests, tags left out. Residues count along the entry.
UniProt P61823, residues 27-150: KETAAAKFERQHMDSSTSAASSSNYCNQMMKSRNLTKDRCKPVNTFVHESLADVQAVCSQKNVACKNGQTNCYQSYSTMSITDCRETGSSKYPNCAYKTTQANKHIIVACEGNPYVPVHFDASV

These are yes or no findings as the source states them, for the method shown. Some entries that bind do so weakly or less than the wild type.

The first assay has as its target Ribonuclease A (Type II-A) from bovine pancreas (bovine) (UniProt P61823). The experiment in a line: SPR, RNase A immobilized on the Au chip, peptide in solution.
Regarding DGTAKKSRKDD [Peptide-3, synthetic peptide with the CDR3 sequence of the screened clone], the binding result is reported as “binds”.

Consider CGPDSDVMTDF [Peptide-1, synthetic peptide with the CDR3 sequence of the screened clone], for which the binding entry is on record as “binds”.

Take YGPVGRVKRDD [Peptide-2, synthetic peptide with the CDR3 sequence of the screened clone]: the binding result is given as “binds”.

The target is the same in the next assay. The experiment in a line: competitive binding analysis using ssDNA (51 bp) as a model RNA.
For DGTAKKSRKDD [Peptide-3, synthetic peptide with the CDR3 sequence of the screened clone], the binding result is listed as “binds”.

CGPDSDVMTDF [Peptide-1, synthetic peptide with the CDR3 sequence of the screened clone]: the binding entry is “binds”.

Turning to YGPVGRVKRDD [Peptide-2, synthetic peptide with the CDR3 sequence of the screened clone], the binding result is “binds”.

A further assay shares this target. The experiment in a line: SPR biosensor, RNase A immobilized on the Au chip.
Consider DGTAKKSRKDD [Peptide-3, synthetic peptide with the CDR3 sequence of the screened clone], for which the binding result is “binds”.

As for CGPDSDVMTDF [Peptide-1, synthetic peptide with the CDR3 sequence of the screened clone], the binding result is given as “binds”.

For YGPVGRVKRDD [Peptide-2, synthetic peptide with the CDR3 sequence of the screened clone], the binding entry is recorded as “binds”.
